Experimental data from the supplement of paper PMC12823440, “Inhibitors supercharge kinase turnover through native proteolytic circuits” (Nature, 2025).
Counter-ions that a name gives are not always drawn. This is one part of the list. Hit calls seldom repeat between salt and free forms of one compound.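 Kinases were expressed as nanoluciferase fusions in K562 cells and luminescence was read every 4 h between 2 and 18 h as percent of control, DMSO set to 100% and a positive control to 0%. A time point counts as decreased when the signal drops significantly (2 sigma). The hit call is the authors' own, does not follow from the count of time points alone, and its rule is not shown.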

By UniProt entry, the sequences of proteins in these tests, tags left out. Where a name states a change or a piece, a line headed by the entry shows the natural chain unless it says otherwise.
UniProt P42356, whole entry, looked up: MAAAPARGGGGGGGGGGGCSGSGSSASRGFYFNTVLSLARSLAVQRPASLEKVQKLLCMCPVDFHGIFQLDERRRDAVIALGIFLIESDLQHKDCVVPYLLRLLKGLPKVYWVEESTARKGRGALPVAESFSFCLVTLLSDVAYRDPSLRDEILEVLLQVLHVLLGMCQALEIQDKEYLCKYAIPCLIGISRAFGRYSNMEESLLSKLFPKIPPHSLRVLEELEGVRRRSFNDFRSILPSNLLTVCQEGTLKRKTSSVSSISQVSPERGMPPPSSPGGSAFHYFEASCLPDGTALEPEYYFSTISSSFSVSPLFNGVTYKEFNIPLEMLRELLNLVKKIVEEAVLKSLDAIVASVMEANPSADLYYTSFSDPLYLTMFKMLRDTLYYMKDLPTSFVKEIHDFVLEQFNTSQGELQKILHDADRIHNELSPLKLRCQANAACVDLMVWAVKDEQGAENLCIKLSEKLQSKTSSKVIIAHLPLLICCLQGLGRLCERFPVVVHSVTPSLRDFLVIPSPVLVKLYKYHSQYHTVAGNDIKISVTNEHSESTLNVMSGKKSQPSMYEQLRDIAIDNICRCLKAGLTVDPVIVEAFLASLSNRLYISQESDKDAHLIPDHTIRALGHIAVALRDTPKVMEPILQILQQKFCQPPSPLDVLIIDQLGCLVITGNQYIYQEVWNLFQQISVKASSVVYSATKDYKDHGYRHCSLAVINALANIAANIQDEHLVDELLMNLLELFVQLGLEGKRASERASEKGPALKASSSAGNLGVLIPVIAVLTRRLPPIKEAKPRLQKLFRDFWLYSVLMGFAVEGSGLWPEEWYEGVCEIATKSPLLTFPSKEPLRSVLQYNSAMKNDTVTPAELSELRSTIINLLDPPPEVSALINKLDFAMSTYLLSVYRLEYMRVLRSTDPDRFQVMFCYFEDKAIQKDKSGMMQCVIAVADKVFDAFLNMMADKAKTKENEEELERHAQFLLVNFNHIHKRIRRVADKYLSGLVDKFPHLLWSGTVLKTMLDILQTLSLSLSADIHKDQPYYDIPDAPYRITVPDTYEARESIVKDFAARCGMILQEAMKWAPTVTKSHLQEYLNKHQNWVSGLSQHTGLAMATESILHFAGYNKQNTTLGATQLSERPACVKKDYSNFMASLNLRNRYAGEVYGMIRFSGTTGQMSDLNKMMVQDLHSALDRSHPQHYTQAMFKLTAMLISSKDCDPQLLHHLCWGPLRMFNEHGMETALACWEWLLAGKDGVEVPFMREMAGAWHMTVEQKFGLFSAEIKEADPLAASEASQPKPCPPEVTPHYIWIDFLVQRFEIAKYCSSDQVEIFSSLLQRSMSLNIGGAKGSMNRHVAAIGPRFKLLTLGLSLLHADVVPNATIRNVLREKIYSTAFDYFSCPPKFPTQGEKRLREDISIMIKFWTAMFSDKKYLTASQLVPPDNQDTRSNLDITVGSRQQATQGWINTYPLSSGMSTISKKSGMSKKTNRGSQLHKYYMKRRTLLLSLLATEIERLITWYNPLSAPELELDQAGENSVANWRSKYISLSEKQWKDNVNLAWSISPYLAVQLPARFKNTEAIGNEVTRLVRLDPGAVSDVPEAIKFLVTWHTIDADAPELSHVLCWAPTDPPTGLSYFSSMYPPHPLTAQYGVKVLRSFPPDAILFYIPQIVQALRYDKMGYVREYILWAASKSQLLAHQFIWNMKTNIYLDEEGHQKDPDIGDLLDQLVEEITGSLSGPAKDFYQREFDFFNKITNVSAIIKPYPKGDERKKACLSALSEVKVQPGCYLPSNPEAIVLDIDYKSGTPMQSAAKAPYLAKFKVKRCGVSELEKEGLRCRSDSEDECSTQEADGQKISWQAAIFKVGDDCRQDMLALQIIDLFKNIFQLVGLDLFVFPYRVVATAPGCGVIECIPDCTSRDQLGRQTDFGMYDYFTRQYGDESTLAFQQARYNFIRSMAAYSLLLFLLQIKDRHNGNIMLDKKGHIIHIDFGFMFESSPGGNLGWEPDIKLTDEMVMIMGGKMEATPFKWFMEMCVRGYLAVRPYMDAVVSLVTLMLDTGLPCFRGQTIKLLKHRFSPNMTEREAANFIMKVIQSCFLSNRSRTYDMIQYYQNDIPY
UniProt Q9UBF8: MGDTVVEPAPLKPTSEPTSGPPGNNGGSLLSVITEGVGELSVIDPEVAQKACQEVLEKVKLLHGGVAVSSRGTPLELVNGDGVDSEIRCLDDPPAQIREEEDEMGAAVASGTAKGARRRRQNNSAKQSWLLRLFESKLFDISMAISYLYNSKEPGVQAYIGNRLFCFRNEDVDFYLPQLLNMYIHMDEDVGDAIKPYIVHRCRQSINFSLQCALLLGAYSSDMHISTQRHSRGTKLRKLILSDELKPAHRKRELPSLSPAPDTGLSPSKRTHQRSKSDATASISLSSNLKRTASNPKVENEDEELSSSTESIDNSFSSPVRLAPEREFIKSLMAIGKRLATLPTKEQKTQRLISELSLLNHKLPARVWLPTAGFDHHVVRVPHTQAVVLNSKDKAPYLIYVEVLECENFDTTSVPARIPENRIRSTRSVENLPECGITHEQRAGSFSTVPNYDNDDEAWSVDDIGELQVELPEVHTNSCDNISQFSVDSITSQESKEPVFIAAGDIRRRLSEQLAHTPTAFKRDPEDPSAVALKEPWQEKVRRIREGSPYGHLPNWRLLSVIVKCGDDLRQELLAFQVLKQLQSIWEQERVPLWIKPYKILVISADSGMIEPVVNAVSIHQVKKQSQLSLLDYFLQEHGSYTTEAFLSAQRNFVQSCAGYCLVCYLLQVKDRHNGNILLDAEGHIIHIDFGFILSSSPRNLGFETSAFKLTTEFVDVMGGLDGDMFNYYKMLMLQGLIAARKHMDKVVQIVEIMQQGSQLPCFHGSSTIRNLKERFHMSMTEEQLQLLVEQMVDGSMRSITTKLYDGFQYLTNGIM
UniProt Q13131: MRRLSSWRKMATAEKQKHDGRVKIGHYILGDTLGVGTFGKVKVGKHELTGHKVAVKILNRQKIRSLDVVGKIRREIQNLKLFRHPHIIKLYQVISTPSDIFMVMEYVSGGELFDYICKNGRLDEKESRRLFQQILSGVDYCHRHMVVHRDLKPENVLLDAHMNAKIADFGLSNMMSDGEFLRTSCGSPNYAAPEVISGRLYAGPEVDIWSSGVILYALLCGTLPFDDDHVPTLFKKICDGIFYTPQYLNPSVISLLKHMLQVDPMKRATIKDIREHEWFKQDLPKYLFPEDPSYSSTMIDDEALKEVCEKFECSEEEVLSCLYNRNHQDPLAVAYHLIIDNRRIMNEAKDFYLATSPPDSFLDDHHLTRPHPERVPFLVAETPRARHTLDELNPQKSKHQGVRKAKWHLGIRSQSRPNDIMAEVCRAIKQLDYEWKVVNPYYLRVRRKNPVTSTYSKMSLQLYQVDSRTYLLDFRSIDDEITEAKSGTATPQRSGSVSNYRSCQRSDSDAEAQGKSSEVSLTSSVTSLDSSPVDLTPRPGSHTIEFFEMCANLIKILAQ
UniProt Q05397, whole entry, looked up: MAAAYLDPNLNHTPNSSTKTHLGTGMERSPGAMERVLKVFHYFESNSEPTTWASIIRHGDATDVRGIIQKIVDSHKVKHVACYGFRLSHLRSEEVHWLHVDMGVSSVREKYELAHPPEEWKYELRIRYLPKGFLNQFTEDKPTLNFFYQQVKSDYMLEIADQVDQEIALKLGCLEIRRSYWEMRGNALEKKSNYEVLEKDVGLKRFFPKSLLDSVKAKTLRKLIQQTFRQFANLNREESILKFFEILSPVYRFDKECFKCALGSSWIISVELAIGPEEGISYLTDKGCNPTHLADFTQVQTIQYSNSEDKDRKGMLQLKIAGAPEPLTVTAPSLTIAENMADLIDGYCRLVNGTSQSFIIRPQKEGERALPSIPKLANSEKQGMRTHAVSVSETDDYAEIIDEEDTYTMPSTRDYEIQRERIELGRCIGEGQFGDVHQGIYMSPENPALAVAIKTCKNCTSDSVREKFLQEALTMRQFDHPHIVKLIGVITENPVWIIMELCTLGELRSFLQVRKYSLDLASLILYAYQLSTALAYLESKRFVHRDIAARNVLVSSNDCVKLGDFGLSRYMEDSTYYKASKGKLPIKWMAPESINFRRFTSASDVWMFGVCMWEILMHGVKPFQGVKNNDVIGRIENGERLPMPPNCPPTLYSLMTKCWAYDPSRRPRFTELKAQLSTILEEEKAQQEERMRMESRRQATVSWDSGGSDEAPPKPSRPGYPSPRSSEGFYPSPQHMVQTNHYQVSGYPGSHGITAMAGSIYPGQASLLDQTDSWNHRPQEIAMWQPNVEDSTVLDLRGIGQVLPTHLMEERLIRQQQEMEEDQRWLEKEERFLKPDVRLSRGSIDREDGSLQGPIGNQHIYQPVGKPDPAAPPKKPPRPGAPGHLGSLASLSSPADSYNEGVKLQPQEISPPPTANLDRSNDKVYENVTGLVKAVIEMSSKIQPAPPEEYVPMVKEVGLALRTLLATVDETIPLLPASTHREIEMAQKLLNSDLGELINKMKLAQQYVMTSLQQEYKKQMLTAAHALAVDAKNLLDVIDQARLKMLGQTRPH
UniProt Q14289, whole entry, looked up: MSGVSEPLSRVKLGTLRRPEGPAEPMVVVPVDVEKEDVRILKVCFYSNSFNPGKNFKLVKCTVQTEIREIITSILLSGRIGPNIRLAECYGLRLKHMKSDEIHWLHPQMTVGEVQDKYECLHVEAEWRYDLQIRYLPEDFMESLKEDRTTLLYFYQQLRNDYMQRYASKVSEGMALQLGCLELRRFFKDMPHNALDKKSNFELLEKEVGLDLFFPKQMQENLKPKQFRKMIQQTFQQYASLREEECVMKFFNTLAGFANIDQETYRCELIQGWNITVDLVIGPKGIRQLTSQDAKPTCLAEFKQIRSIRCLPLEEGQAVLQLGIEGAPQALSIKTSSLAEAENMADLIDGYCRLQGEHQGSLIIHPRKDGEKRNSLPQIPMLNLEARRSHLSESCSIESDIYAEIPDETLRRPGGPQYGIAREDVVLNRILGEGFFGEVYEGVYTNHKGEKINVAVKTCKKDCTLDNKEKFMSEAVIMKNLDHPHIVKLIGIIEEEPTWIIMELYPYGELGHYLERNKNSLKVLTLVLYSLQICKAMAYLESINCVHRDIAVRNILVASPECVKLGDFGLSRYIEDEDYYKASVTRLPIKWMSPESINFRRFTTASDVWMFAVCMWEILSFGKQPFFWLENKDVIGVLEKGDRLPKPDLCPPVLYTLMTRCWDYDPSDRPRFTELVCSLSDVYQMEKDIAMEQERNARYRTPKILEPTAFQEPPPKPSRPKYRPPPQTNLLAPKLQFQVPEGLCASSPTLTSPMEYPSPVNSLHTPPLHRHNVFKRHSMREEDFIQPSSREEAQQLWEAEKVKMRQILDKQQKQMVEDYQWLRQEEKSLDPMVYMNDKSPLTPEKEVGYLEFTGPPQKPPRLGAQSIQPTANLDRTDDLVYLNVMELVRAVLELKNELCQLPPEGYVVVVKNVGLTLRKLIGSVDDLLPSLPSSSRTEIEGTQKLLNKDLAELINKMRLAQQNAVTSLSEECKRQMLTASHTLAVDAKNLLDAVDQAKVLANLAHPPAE

Tests used:
Test in all cases: kinase-Nluc reporter destabilization hit call (1 = scored as downregulated) (binary); higher = compound decreases kinase abundance
Conditions in all cases: K562; 2-18 h
PDPK1 = PDPK1 (UniProt O15530)
PIK4CA = PIK4CA (UniProt P42356)
PIK4CB = PIK4CB (UniProt Q9UBF8)
PLK1 = PLK1 (UniProt P53350)
PRKAA1 = PRKAA1 (UniProt Q13131)
PRKCA = PRKCA (UniProt P17252)
PTK2 = PTK2 (UniProt Q05397)
PTK2B = PTK2B (UniProt Q14289)
RAF1 = RAF1 (UniProt P04049)
[1] = molecular target: RAF1_S257L (clone: RAF1_mut) (UniProt P04049)

Structure (SMILES) | kinase-Nluc reporter destabilization hit call (PDPK1) | kinase-Nluc reporter destabilization hit call (PIK4CA) | kinase-Nluc reporter destabilization hit call (PIK4CB) | kinase-Nluc reporter destabilization hit call (PLK1) | kinase-Nluc reporter destabilization hit call (PRKAA1) | kinase-Nluc reporter destabilization hit call (PRKCA) | kinase-Nluc reporter destabilization hit call (PTK2) | kinase-Nluc reporter destabilization hit call (PTK2B) | kinase-Nluc reporter destabilization hit call (RAF1) | kinase-Nluc reporter destabilization hit call [1]
C[C@@H]1CC[C@@H](Nc2nc(NC(C)(C)C)ncc2C(N)=O)C[C@H]1O (10 µM) | inactive: 0 | inactive: 0 | inactive: 0 | inactive: 0 | inactive: 0 | inactive: 0 | inactive: 0 | inactive: 0 | inactive: 0 | inactive: 0
CC1(C)C(O[C@@H]2OC[C@@H](O)[C@H](O)[C@H]2O)CC[C@]23CC24CC[C@]2(C)[C@@H]([C@@]5(C)CC[C@@H](C(C)(C)O)O5)[C@H](O)C[C@@]2(C)C4C[C@@H](O[C@@H]2O[C@H](CO)[C@@H](O)[C@H](O)[C@H]2O)C13 (stereo not given in full) [Astragaloside IV] (10 µM) | inactive: 0 | inactive: 0 | inactive: 0 | inactive: 0 | inactive: 0 | inactive: 0 | inactive: 0 | inactive: 0 | inactive: 0 | inactive: 0
COc1cc2nccc(Oc3ccc(NC(=O)NC4CC4)c(Cl)c3)c2cc1C(N)=O [Lenvatinib] (10 µM) | inactive: 0 | inactive: 0 | inactive: 0 | inactive: 0 | inactive: 0 | inactive: 0 | inactive: 0 | inactive: 0 | inactive: 0 | inactive: 0
C=C(CC[C@@H](C(=O)O)[C@H]1[C@H](O)C[C@@]2(C)C3=C(CC[C@]12C)[C@@]1(C)CC[C@H](OC(C)=O)C(C)(C)[C@@H]1CC3)C(C)C [Pachymic acid] (10 µM) | inactive: 0 | inactive: 0 | inactive: 0 | inactive: 0 | inactive: 0 | inactive: 0 | inactive: 0 | inactive: 0 | inactive: 0 | inactive: 0
C[C@@H](c1ccc(F)cc1)n1nnc2cnc3ccc(-c4ccc5ocnc5c4)cc3c21 (10 µM) | inactive: 0 | inactive: 0 | inactive: 0 | inactive: 0 | inactive: 0 | inactive: 0 | inactive: 0 | inactive: 0 | inactive: 0 | inactive: 0
CNC(=O)c1cc(COc2nnc(Nc3ccc(Cl)cc3)c3ccoc23)ccn1 [Telatinib] (10 µM) | inactive: 0 | inactive: 0 | inactive: 0 | inactive: 0 | inactive: 0 | inactive: 0 | active: 1 | inactive: 0 | inactive: 0 | inactive: 0
FC(F)c1nc2ccccc2n1-c1nc(N2CCOCC2)nc(N2CCOCC2)n1 (2 µM) | inactive: 0 | inactive: 0 | inactive: 0 | inactive: 0 | inactive: 0 | inactive: 0 | inactive: 0 | inactive: 0 | inactive: 0 | inactive: 0
Cn1cc(-c2ccc3c(c2)CCN3C(=O)Cc2cccc(C(F)(F)F)c2)c2c(N)ncnc21 (2.5 µM) | inactive: 0 | inactive: 0 | inactive: 0 | inactive: 0 | inactive: 0 | inactive: 0 | inactive: 0 | inactive: 0 | inactive: 0 | inactive: 0
CCc1cc2c(cc1N1CCC(N3CCOCC3)CC1)C(C)(C)c1[nH]c3cc(C#N)ccc3c1C2=O [Alectinib (Hydrochloride)] (2 µM) | inactive: 0 | inactive: 0 | inactive: 0 | inactive: 0 | inactive: 0 | inactive: 0 | inactive: 0 | inactive: 0 | inactive: 0 | inactive: 0
c1cc(-c2c[nH]c3nccc(N4CCC[C@@]5(CCCCN5)C4)c23)ncn1 (10 µM) | inactive: 0 | inactive: 0 | inactive: 0 | inactive: 0 | inactive: 0 | inactive: 0 | inactive: 0 | inactive: 0 | inactive: 0 | inactive: 0
CC#CC(=O)N1CC[C@@H](n2c(=O)n(-c3ccc(Oc4ccccc4)cc3)c3c(N)ncnc32)C1 [Tirabrutinib (hydrochloride)] (10 µM) | inactive: 0 | inactive: 0 | inactive: 0 | inactive: 0 | inactive: 0 | inactive: 0 | inactive: 0 | inactive: 0 | inactive: 0 | inactive: 0
Cc1nc(-c2cn3c(n2)-c2ccc(-c4cnn(C(C)(C)C(N)=O)c4)cc2OCC3)n(C(C)C)n1 [Taselisib] (10 µM) | inactive: 0 | inactive: 0 | inactive: 0 | inactive: 0 | inactive: 0 | inactive: 0 | inactive: 0 | inactive: 0 | inactive: 0 | inactive: 0
CC1CCc2c(cc(Br)c(F)c2Br)N1C=O (stereo not given) (10 µM) | inactive: 0 | inactive: 0 | inactive: 0 | inactive: 0 | inactive: 0 | inactive: 0 | inactive: 0 | inactive: 0 | inactive: 0 | inactive: 0
COc1ncc(Cl)cc1S(=O)(=O)Nc1ccc(F)c(C#Cc2cnc(N)nc2)c1F (2.5 µM) | inactive: 0 | inactive: 0 | inactive: 0 | inactive: 0 | inactive: 0 | inactive: 0 | inactive: 0 | inactive: 0 | inactive: 0 | inactive: 0
Cc1c(-c2c(F)cc(C(N)=O)c3[nH]c4c(c23)CC[C@H](C(C)(C)O)C4)cccc1-n1c(=O)c2cccc(F)c2n(C)c1=O (2.5 µM) | inactive: 0 | inactive: 0 | inactive: 0 | inactive: 0 | inactive: 0 | inactive: 0 | inactive: 0 | inactive: 0 | inactive: 0 | inactive: 0
Cc1ccccc1-c1c2nccc(-c3ccc(F)cc3F)c2cc[n+]1[O-] (10 µM) | inactive: 0 | inactive: 0 | inactive: 0 | inactive: 0 | inactive: 0 | inactive: 0 | inactive: 0 | inactive: 0 | inactive: 0 | inactive: 0
COc1cc(Nc2ncc(F)c(Nc3ccc4c(n3)N(COP(=O)(O)O)C(=O)C(C)(C)O4)n2)cc(OC)c1OC [Fostamatinib (disodium hexahydrate)] (10 µM) | inactive: 0 | inactive: 0 | inactive: 0 | inactive: 0 | inactive: 0 | inactive: 0 | inactive: 0 | inactive: 0 | inactive: 0 | inactive: 0
Cc1cc(CN2CCN(c3c(Br)cnc4nc(-c5ccc(N6CCN(C)CC6)cc5)[nH]c34)CC2)no1 (2.5 µM) | inactive: 0 | inactive: 0 | inactive: 0 | inactive: 0 | inactive: 0 | inactive: 0 | inactive: 0 | inactive: 0 | inactive: 0 | inactive: 0
COc1cc2c(N3CCN(C(=O)Nc4ccc(OC(C)C)cc4)CC3)ncnc2cc1OCCCN1CCCCC1 [Tandutinib] (10 µM) | inactive: 0 | inactive: 0 | inactive: 0 | inactive: 0 | inactive: 0 | inactive: 0 | inactive: 0 | inactive: 0 | inactive: 0 | inactive: 0
Cc1cc2ncc(-c3ccc(O)c(O)c3)nc2cc1C [Tyrphostin AG1433] (10 µM) | inactive: 0 | inactive: 0 | inactive: 0 | inactive: 0 | inactive: 0 | inactive: 0 | inactive: 0 | inactive: 0 | inactive: 0 | inactive: 0
O=C1NC(=O)/C(=C/c2ccc3nccnc3c2)S1 (10 µM) | inactive: 0 | inactive: 0 | inactive: 0 | inactive: 0 | inactive: 0 | inactive: 0 | inactive: 0 | inactive: 0 | inactive: 0 | inactive: 0
Cc1ccc(CNc2ncnc3ccc(-c4ccc(CO)o4)cc23)o1 (10 µM) | inactive: 0 | inactive: 0 | inactive: 0 | inactive: 0 | inactive: 0 | inactive: 0 | inactive: 0 | inactive: 0 | inactive: 0 | inactive: 0
CN1CCN(c2cccc(Nc3nc4c(-c5ccc(S(C)(=O)=O)cc5)cccn4n3)c2)CC1 (10 µM) | inactive: 0 | inactive: 0 | inactive: 0 | inactive: 0 | inactive: 0 | inactive: 0 | inactive: 0 | inactive: 0 | inactive: 0 | inactive: 0
O=C(Nc1cn[nH]c1-c1ccccn1)c1nn(C2CCNCC2)cc1Cl (10 µM) | inactive: 0 | inactive: 0 | inactive: 0 | inactive: 0 | inactive: 0 | inactive: 0 | inactive: 0 | inactive: 0 | inactive: 0 | inactive: 0
C=CC(=O)Nc1cccc(Nc2nc(Nc3ccc(N4CCN(C(C)=O)CC4)cc3OC)ncc2C(F)(F)F)c1 [Rociletinib] (10 µM) | inactive: 0 | inactive: 0 | inactive: 0 | inactive: 0 | inactive: 0 | inactive: 0 | inactive: 0 | inactive: 0 | inactive: 0 | inactive: 0
CC#CC(=O)Nc1ccc2ncnc(Nc3cccc(Br)c3)c2c1 (10 µM) | inactive: 0 | inactive: 0 | inactive: 0 | inactive: 0 | inactive: 0 | inactive: 0 | inactive: 0 | inactive: 0 | inactive: 0 | inactive: 0
CCc1c(C(=O)NNC(=O)C(O)c2cc(F)cc(F)c2)ccc(O)c1C (stereo not given) (10 µM) | inactive: 0 | inactive: 0 | inactive: 0 | inactive: 0 | inactive: 0 | inactive: 0 | inactive: 0 | inactive: 0 | inactive: 0 | inactive: 0
Oc1ccc(Nc2nc(-c3ccc(Cl)cc3)cs2)cc1 (10 µM) | inactive: 0 | inactive: 0 | inactive: 0 | inactive: 0 | inactive: 0 | inactive: 0 | inactive: 0 | inactive: 0 | inactive: 0 | inactive: 0
COc1ccc(Cl)c(Nc2nc3ccccc3nc2NS(=O)(=O)c2cccc(NC(=O)C(C)(C)N)c2)c1 [Pilaralisib] (10 µM) | inactive: 0 | inactive: 0 | inactive: 0 | inactive: 0 | inactive: 0 | inactive: 0 | inactive: 0 | inactive: 0 | inactive: 0 | inactive: 0

Record cards (already shown). Values in the order: kinase-Nluc reporter destabilization hit call (PDPK1)	kinase-Nluc reporter destabilization hit call (PIK4CA)	kinase-Nluc reporter destabilization hit call (PIK4CB)	kinase-Nluc reporter destabilization hit call (PLK1)	kinase-Nluc reporter destabilization hit call (PRKAA1)	kinase-Nluc reporter destabilization hit call (PRKCA)	kinase-Nluc reporter destabilization hit call (PTK2)	kinase-Nluc reporter destabilization hit call (PTK2B)	kinase-Nluc reporter destabilization hit call (RAF1)	kinase-Nluc reporter destabilization hit call [1]
CN1CCN(c2cccc(Nc3nc4c(-c5ccc(S(C)(=O)=O)cc5)cccn4n3)c2)CC1 (10 µM) as listed: inactive: 0	inactive: 0	inactive: 0	inactive: 0	inactive: 0	inactive: 0	inactive: 0	inactive: 0	inactive: 0	inactive: 0
FC(F)c1nc2ccccc2n1-c1nc(N2CCOCC2)nc(N2CCOCC2)n1 (2 µM) as listed: inactive: 0	inactive: 0	inactive: 0	inactive: 0	inactive: 0	inactive: 0	inactive: 0	inactive: 0	inactive: 0	inactive: 0
